Experimental data as given in patent publication US20120183536A1, “METHODS OF USING CORTICOTROPIN-RELEASING FACTOR FOR THE TREATMENT OF CANCER” (priority 2009, published 2012).
For at least one compound, name, drawing or mass did not settle the structure.

Test system: U87 Fluc brain tumor
Conditions: TMZ 40 mg/kg intraperitoneally 5 days/week; all mice but one
Excerpt: The results were obtained with SCID mice bearing brain tumors produced by injection with the human glioblastoma cell line U87 Flue. The U87 Flue cell line was created by stably transducing U87 cells with a lentiviral construct containing the luc gene.

SMILES: Cn1nnc2c(C(N)=O)ncn2c1=O [TMZ, temozolomide, reference compound]
- brain tumor response (photon emission): responded to the treatment
